The data set in a line: general procedure: Fmoc solid-phase peptide synthesis. The note with it: conjugation step.

Some peptides are written in HELM: one residue between dots, names in brackets for other building blocks, links after the first $.

Substance “PEPTIDE1{[ac].[Ahx].[dE].[dE].[dE].[dE].[Ahx].P.A.A.N.V.G.[dR].[dR].[dR].[dR].[dR].[Ahx].[dK].[am]}|CHEM1{[NOTA-Bn-NHCS]}$PEPTIDE1,CHEM1,20:R3-1:R2$$$V2.0” had a conjugation yield of 32%.
For “PEPTIDE1{[ac].[Ahx].[dE].[dE].[dE].[dE].[dE].[dE].[dE].[dE].[dE].[Ahx].P.A.A.N.V.G.[dR].[dR].[dR].[dR].[dR].[dR].[dR].[dR].[dR].[Ahx].[dK].[am]}|CHEM1{[NOTA-Bn-NHCS]}$PEPTIDE1,CHEM1,29:R3-1:R2$$$V2.0” the value was 65%.
